# Screening data

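Vaccinia-infected cells with a two-color viral stage reporter; Venus fluorescence read on a plate reader; the cell line is not named here; timing not stated here.
The test concentration is not given here.
Percent change in Venus reporter signal; lower (more negative) values mean stronger inhibition of that viral stage.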

Values are in %.
The controls that fix the scale are not given here.
Common to all entries: measured here: Venus reporter, other viral stage.
Part of the compounds only, not a random draw; the main read-out is not listed here.

compound	activity change (Venus) (%)
CN1C(=O)c2cc(NC(=O)c3cccc(F)c3)ccc2OC[C@@H]2O[C@@H](CC(=O)NCC3CCCCC3)CC[C@H]21	-36.61
C[C@H]1CN([C@@H](C)CO)S(=O)(=O)c2ccc(C#CC3CCCC3)cc2O[C@@H]1CN(C)C	-46.24
COc1ccc(S(=O)(=O)Nc2ccc3c(c2)C(=O)N([C@H](C)CO)C[C@@H](C)[C@@H](CN(C)Cc2ccc(Oc4ccccc4)cc2)O3)cc1	-63.17
C[C@H](CO)N1C[C@H](C)[C@@H](CN(C)Cc2ccc(Cl)c(Cl)c2)Oc2ccc(NC(=O)Nc3ccc(F)cc3)cc2CC1=O	-49.27
O=C(Cc1cccnc1)N1CCCCN2[C@H](CO)[C@H](c3ccc(C#CC4CCCC4)cc3)[C@H]2C1	-67.97
C[C@H](CO)N1C[C@H](C)[C@@H](CN(C)Cc2ccc(C(F)(F)F)cc2)Oc2ccc(NS(=O)(=O)c3ccccc3)cc2CC1=O	-76.13
CCCN(C)C[C@H]1OCCCC[C@@H](C)Oc2ccc(NS(=O)(=O)c3ccc(F)cc3)cc2C(=O)N([C@@H](C)CO)C[C@@H]1C	-23.54
C[C@@H]1CN([C@H](C)CO)C(=O)c2cc(C#CC3CCCCC3)cnc2O[C@H]1CN(C)C(=O)C1CCCCC1	-45.57
O=C(Nc1cccc(F)c1)N1C[C@@H]2N[C@H](C1)C2c1ccc(-c2cccnc2)cc1 (some centres not stated)	-73.18
C[C@H]1CN([C@@H](C)CO)C(=O)c2cc(NC(=O)NC3CCCCC3)ccc2O[C@H]1CN(C)Cc1ccc(Oc2ccccc2)cc1	-12.54
C[C@@H]1CN([C@@H](C)CO)C(=O)c2cc(NC(=O)CCC(F)(F)F)ccc2O[C@@H](C)CCCCO[C@H]1CN(C)C(=O)C1CCCCC1	-30.28
O=C(C[C@@H]1CC[C@@H]2[C@H](COC[C@@H](O)CN2C(=O)Nc2ccc(Cl)c(Cl)c2)O1)NCc1ccncc1	-34.64
C[C@@H]1CN([C@@H](C)CO)S(=O)(=O)c2ccc(-c3ccc(F)cc3)cc2O[C@@H]1CN(C)C(=O)C1CCCCC1	-49.15
C[C@@H]1CCCCO[C@@H](CN(C)CC2CC2)[C@H](C)CN([C@@H](C)CO)C(=O)c2cc(NC(=O)CCC(F)(F)F)ccc2O1	-21.71
C[C@@H]1CN([C@@H](C)CO)C(=O)Cc2cc(NC(=O)Nc3ccc(C(F)(F)F)cc3)ccc2O[C@H]1CN(C)C(=O)NC1CCCCC1	-29.71
C[C@@H]1CN([C@@H](C)CO)C(=O)c2cc(NC(=O)Cc3ccccc3)ccc2O[C@@H](C)CCCCO[C@H]1CN(C)C(=O)C1CCCCC1	-33.66
C[C@@H]1CCCCO[C@@H](CN(C)C(=O)C2CCCCC2)[C@H](C)CN([C@@H](C)CO)C(=O)c2cc(NC(=O)c3ccccc3)ccc2O1	-41.22
CC(C)CC#Cc1cnc2c(c1)C(=O)N([C@@H](C)CO)C[C@H](C)[C@@H](CN(C)Cc1ccc3c(c1)OCO3)O2	-29.24
C[C@H]1CCCCO[C@@H](CN(C)Cc2ccc3c(c2)OCO3)[C@@H](C)CN([C@@H](C)CO)C(=O)c2cc(NC(=O)C3CCCCC3)ccc2O1	-53.4
O=C(Nc1cccc(F)c1)N1CCCCN2[C@@H](CO)[C@H](c3ccc(C#CC4CC4)cc3)[C@@H]2C1	-75.65
COc1cccc(C#Cc2ccc3c(c2)O[C@H](CN(C)C)[C@H](C)CN([C@H](C)CO)S3(=O)=O)c1	-54.11
CC(C)CC#Cc1ccc2c(c1)O[C@H](CN(C)C(=O)Cc1ccncc1)[C@H](C)CN([C@H](C)CO)S2(=O)=O	-45.31
COc1ccc(-c2ccc3c(c2)[C@@H]2[C@@H](CCN2S(=O)(=O)c2ccc(F)cc2)[C@@H](CO)N3C)cc1	-48.74
C[C@H](CO)N1C[C@H](C)[C@H](CN(C)Cc2ccc(Oc3ccccc3)cc2)Oc2ccc(NC(=O)Nc3ccc(C(F)(F)F)cc3)cc2C1=O	-49.31
COc1ccc(S(=O)(=O)N(C)C[C@@H]2Oc3cc(C#CC4CC4)ccc3S(=O)(=O)N([C@@H](C)CO)C[C@H]2C)cc1	-32.57
C[C@H](CO)N1C[C@H](C)[C@@H](CN(C)C(=O)Cc2ccccc2)Oc2cc(-c3ccccc3)ccc2S1(=O)=O	-29.07
Cc1ccc(S(=O)(=O)Nc2cccc3c2O[C@@H](CN(C)Cc2ccc(Oc4ccccc4)cc2)[C@H](C)CN([C@@H](C)CO)C3=O)cc1	-30.93
C[C@H](CO)N1C[C@H](C)[C@H](CN(C)C(=O)Nc2cccc(C(F)(F)F)c2)OCc2ccccc2-c2c(n(C)c3ccccc23)C1=O	-53.51
C[C@@H]1CN([C@H](C)CO)C(=O)c2cc(NC(=O)Nc3ccc4c(c3)OCO4)ccc2O[C@@H](C)CCCCO[C@H]1CN(C)Cc1ccccc1	-56.14
C[C@H](CO)N1C[C@H](C)[C@@H](CN(C)C(=O)CN(C)C)Oc2cc(C3=CCCCC3)ccc2S1(=O)=O	-41.98
O=C(Nc1ccc(F)cc1)N1CCCCN2[C@H](C1)[C@H](c1ccc(-c3cccc(F)c3)cc1)[C@@H]2CO	-40.54
C[C@@H]1CN([C@H](C)CO)C(=O)Cc2cc(NC(=O)NC3CCCCC3)ccc2O[C@@H]1CN(C)Cc1ccc(Cl)c(Cl)c1	-42.36
CCC(=O)N1CC[C@@H]2[C@@H](CO)N(C)c3ccc(-c4cccc(OC)c4)cc3[C@@H]21	-40.54
Cc1ccc(S(=O)(=O)N(C)C[C@@H]2OCCCC[C@@H](C)Oc3ccc(NS(=O)(=O)c4ccccc4)cc3C(=O)N([C@H](C)CO)C[C@H]2C)cc1	-36.86
N#C[C@H]1[C@H](c2ccc(C#Cc3cccc(F)c3)cc2)[C@@H](CO)N1C(=O)C1CCCC1	-26.38
C[C@H]1CCCCO[C@@H](CN(C)S(=O)(=O)c2ccc(Cl)cc2)[C@@H](C)CN([C@@H](C)CO)C(=O)c2cc(NC(=O)NC3CCCCC3)ccc2O1	-28.52
C[C@H]1CN([C@@H](C)CO)C(=O)Cc2cc(NC(=O)C3CC3)ccc2O[C@@H]1CN(C)Cc1ccc(Cl)c(Cl)c1	-23.07
CC(C)CC#Cc1ccc2c(c1)O[C@@H](CN(C)C(=O)Nc1ccccc1)[C@@H](C)CN([C@@H](C)CO)S2(=O)=O	-47.65
COc1ccc2c3c(n(C)c2c1)[C@H](CO)N(Cc1ccccc1Cl)CC31CCN(C(=O)CN(C)C)CC1	-39.34
COc1ccc2c3c(n(C)c2c1)[C@H](CO)NCC31CCN(C(=O)Nc2ccc(F)cc2F)CC1	-31.14
C[C@@H]1CN([C@H](C)CO)C(=O)c2cc(/C=C/c3ccccc3)cnc2O[C@@H]1CN(C)C(=O)Nc1ccc(C(F)(F)F)cc1	-79.78
Cc1ccc(S(=O)(=O)N[C@H]2CC[C@@H](CCNC(=O)c3ccccc3F)O[C@@H]2CO)cc1	-31.69
Cc1ccc(S(=O)(=O)N(C)C[C@H]2OCCCC[C@@H](C)Oc3ccc(NS(=O)(=O)c4ccc(F)cc4)cc3C(=O)N([C@H](C)CO)C[C@H]2C)cc1	-37.43
C[C@H]1CN([C@@H](C)CO)C(=O)c2cc(NC(=O)c3ccncc3)ccc2O[C@@H]1CN(C)Cc1ccc(Oc2ccccc2)cc1	-33.86
O=C(C[C@@H]1C[C@H]2c3cc(NC(=O)C4CCC4)ccc3O[C@H]2[C@H](CO)O1)NCc1ccc(-c2ccccc2)cc1	-42.36
C[C@H](CO)N1C[C@H](C)[C@H](CN(C)Cc2ccc(-c3ccccc3)cc2)Oc2ccc(NC(=O)Cc3ccccc3)cc2CC1=O	-38.82
C[C@@H]1CN([C@@H](C)CO)C(=O)c2cc(NC(=O)CCCCCC(=O)Nc3ccccc3N)ccc2O[C@H]1CN(C)Cc1ccc(C(F)(F)F)cc1	-41.5
O=C(Nc1ccc(F)cc1)N1CC(=O)N2[C@@H](CO)[C@@H](c3ccc(C#Cc4ccc(F)cc4)cc3)[C@@H]2C1	-70.61
CN(C)C(=O)c1cccc(-c2ccc3c(c2)[C@@H]2[C@@H](CCN2C(=O)C2CCCC2)[C@H](CO)N3)c1	-36.12

4 of the entries, repeated:

compound,activity change (Venus) (%)
C[C@@H]1CN([C@@H](C)CO)C(=O)c2cc(NC(=O)Cc3ccccc3)ccc2O[C@@H](C)CCCCO[C@H]1CN(C)C(=O)C1CCCCC1,-33.66
C[C@H]1CN([C@@H](C)CO)S(=O)(=O)c2ccc(C#CC3CCCC3)cc2O[C@@H]1CN(C)C,-46.24
C[C@H]1CCCCO[C@@H](CN(C)Cc2ccc3c(c2)OCO3)[C@@H](C)CN([C@@H](C)CO)C(=O)c2cc(NC(=O)C3CCCCC3)ccc2O1,-53.4
C[C@H](CO)N1C[C@H](C)[C@H](CN(C)C(=O)Nc2cccc(C(F)(F)F)c2)OCc2ccccc2-c2c(n(C)c3ccccc23)C1=O,-53.51

Source: PubChem BioAssay AID1053133 (Broad Institute, 2014).